The text below walks through data of PMC4705923, “Structural Insights into the MMACHC-MMADHC Protein Complex Involved in Vitamin B12 Trafficking*” (The Journal of Biological Chemistry, 2015).

Amino acid sequences for entries named in this document (tags omitted). A change or cut given only in a name is not applied to a line headed by its entry.
UniProt Q9Y4U1: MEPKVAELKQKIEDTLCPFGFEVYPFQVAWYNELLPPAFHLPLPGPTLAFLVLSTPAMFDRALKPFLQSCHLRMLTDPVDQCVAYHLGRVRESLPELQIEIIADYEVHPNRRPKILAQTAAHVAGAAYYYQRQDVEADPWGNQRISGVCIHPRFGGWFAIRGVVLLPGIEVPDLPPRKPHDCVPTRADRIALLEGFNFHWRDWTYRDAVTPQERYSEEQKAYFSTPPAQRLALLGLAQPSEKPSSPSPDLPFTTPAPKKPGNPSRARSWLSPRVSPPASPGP

One test has as its target HsMMACHC R161Q (human) (UniProt Q9Y4U1). Description: native gel or EMSA; blue native-PAGE; 25 μM of each protein with 50 μM MeCbl and 8 mM GSH, preincubated in the dark at room temperature for 1 h; complex judged by an additional band; both purified. Background: A gel shift assay detects complexes by their altered migration in electrophoresis.
The target of a further test is HsMMACHC ΔPNR (human) (UniProt Q9Y4U1). The test is described as above.

No constants are given. Whether binding was seen depends on the method and setting. For some assays here: A result given as binding can be weak or reduced; the word gives no strength.

B1: HsMMADHCΔ123 (domain or fragment, human, UniProt Q9H3L0 124-296, looked up)
chain: QGNDAPVEQEINSAETYFESARVECAIQTCPELLRKDFESLFPEVANGKLMILTVTQKTKNDMTVWSEEVEIEREVLLEKFINGAKEICYALRAEGYWADFIDPSSGLAFFGPYTNNTLFETDERYRHLGFSVDDLGCCKVIRHSLWGTHVVVGSIFTNATPDSHIMKKLSGN
notes: human MMADHC (296 aa) with N-terminal truncation Δ123; source: E. coli BL21(DE3)R3, purified (Ni-Sepharose, Superdex 200)
For the molecule B1, the binding result is “binds” with HsMMACHC R161Q (human) and “no binding (tested: 25 μM)” with HsMMACHC ΔPNR (human).
